“And” between values parts separate entries of the source, which are not always exact repeats. Identical values can stand only once. Inconclusive results, whose numbers are uncertain, are shown with a selection of clear calls. For some assays here: Where the call is inconclusive, the potency comes from a doubtful curve fit. More than one record can exist for a structure, and the calls need not agree. The source made the active and inactive calls. Unless noted, calls follow the shape of the dose curve; as a rule, active = well fitted cell-killing curve with a large enough effect in the repeat runs; inconclusive = weak or mixed curves, or effect the other way; inactive = no such curve, though single readings can be large or run the other way.
Legend:
[1] = molecular target: Vitamin D3 receptor (Homo sapiens) (UniProt P11473); assay: qHTS assay to identify small molecule antagonists of the vitamin D receptor (VDR) signaling pathway (AID 743223; active = well fitted inhibition curve with a large enough effect in the signal ratio in the repeat runs, not every such curve was filed as active; inconclusive = weak or mixed curves, or effect the other way; inactive = no such curve, though single readings can be large or run the other way; the % refers to the signal ratio; as to activity change, negative = inhibition: % is scaled to controls: 0 for no effect and ±100 for the full control effect); settings: VDR-UAS-bla HEK293T, beta-lactamase FRET ratio, 16 h; activity change, negative = inhibition: at 61 µM (top of the series) unless noted
In short: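 Quantitative HTS in VDR-bla reporter cells stimulated with 1alpha,25-dihydroxyvitamin D3, 3 nM final. Compound exposure 16 h, 37C, 5% CO2. Read-out: beta-lactamase FRET substrate fluorescence, 2 h RT.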

Protein sequences, listed by entry. Tags and fused reporters are not part of them. Lines headed by an entry give the natural chain unless they say otherwise; changes in a name come on top.
UniProt P11473: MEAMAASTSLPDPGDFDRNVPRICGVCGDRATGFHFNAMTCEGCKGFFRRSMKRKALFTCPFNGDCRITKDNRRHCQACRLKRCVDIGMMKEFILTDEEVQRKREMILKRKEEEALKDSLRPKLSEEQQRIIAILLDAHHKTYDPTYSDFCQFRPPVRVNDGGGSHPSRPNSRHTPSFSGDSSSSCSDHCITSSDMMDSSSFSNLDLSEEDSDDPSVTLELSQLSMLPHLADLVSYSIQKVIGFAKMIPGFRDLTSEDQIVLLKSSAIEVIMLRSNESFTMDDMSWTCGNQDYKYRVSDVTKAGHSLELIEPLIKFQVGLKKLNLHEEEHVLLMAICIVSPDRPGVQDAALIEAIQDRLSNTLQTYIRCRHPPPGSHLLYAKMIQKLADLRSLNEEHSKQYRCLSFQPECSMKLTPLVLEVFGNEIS
UniProt Q96RI1: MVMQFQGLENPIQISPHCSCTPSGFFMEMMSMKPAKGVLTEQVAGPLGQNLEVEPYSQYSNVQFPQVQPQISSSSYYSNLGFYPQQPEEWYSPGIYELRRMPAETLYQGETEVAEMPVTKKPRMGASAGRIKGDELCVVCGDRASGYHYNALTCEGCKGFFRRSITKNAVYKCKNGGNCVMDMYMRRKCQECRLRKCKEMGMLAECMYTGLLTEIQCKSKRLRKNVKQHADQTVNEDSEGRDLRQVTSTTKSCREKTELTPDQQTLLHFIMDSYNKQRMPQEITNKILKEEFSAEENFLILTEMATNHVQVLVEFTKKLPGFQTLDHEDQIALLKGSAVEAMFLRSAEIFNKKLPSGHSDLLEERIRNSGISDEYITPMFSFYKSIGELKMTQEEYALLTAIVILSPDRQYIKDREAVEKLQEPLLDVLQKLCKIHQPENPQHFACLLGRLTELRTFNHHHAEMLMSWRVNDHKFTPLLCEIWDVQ

[2] = qHTS assay to identify small molecule agonists of the NFkB signaling pathway - cell viability counter screen (AID 1159515; calls by dose curve; also: nearly all actives have a fitted effect of over 55% in size)
In short: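 Multiplexed viability readout: after the 5 hr compound exposure and 1.5 hr FRET substrate step, CellTiter-Glo reagent went into the same NFkB-bla ME-180 wells; ATP luminescence was measured after 30 min at room temperature.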

[3] = qHTS assay to identify small molecule agonists of the vitamin D receptor (VDR) signaling pathway - cell viability counter screen (AID 743224); also: nearly all actives have a fitted effect of over 50% in size
In short: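 Viability is measured in the same wells as the VDR-bla reporter assay: after 16 h compound treatment and 2 h substrate loading, CellTiter-Glo is added and luminescence read 30 min later.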

[4] = qHTS assay to identify small molecule antagonists of the vitamin D receptor (VDR) signaling pathway - cell viability counter screen (AID 743225); settings: VDR-bla HEK293T viability, CellTiter-Glo luminescence, 16 h; viability change, negative = cytotoxic: at 61 µM (top of the series); also: nearly all actives have a fitted effect of over 50% in size; as to viability change, negative = cytotoxic: % is scaled to controls: 0 for no effect and ±100 for the full control effect
In short: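 Same-well multiplex: following 16 h treatment of HEK 293T cells carrying a UAS-driven beta-lactamase reporter with compound and agonist (3 nM final), and a 2 h FRET substrate step, CellTiter-Glo was added and luminescence read after 30 min.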

[5] = qHTS assay to identify small molecule agonists of the endoplasmic reticulum stress response signaling pathway (AID 1159516; active = well fitted activation curve with a large enough effect in the signal ratio in the repeat runs, not every such curve was filed as active; inconclusive = weak or mixed curves, or effect the other way; the % refers to the signal ratio; as to activation: % is scaled to controls: 0 for no effect and ±100 for the full control effect); settings: ESRE-bla HeLa, ER stress beta-lactamase reporter, 5 h; activation: at 61 µM (top of the series) unless noted
In short: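 Tox21 10K library screened in quantitative HTS format on ESRE-bla HeLa cells, a beta-lactamase reporter under ER stress response element control; 5 hr treatment, FRET read.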

[6] = qHTS assay to identify small molecule agonists of the farnesoid-X-receptor (FXR) signaling pathway - cell viability counter screen (AID 743218); settings: FXR-bla HEK293T viability, CellTiter-Glo luminescence, 16 h; viability change, negative = cytotoxic: at 62.6 µM (top of the series) unless noted; also: nearly all actives have a fitted effect of over 45% in size
In short: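 Cytotoxicity counter-screen run in parallel, same wells: FXR-UAS-bla HEK 293T cells dosed 16 h at 37 C, viability read by CellTiter-Glo luminescence after 30 min at room temperature.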

[7] = molecular target: Bile acid receptor (Homo sapiens) (UniProt Q96RI1); assay: qHTS assay to identify small molecule agonists of the farnesoid-X-receptor (FXR) signaling pathway (AID 743220; active = well fitted activation curve with a large enough effect in the signal ratio in the repeat runs, not every such curve was filed as active; inconclusive = weak or mixed curves, or effect the other way; the % refers to the signal ratio); settings: HEK293T FXR-UAS-bla, beta-lactamase FRET ratio, 16 h; activation: at 62.6 µM (top of the series) unless noted
In short: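 Beta-lactamase reporter under UAS control in GeneBLAzer FXR HEK 293T cells (5000/well) measured with LiveBLAzer FRET substrate after 2 h at room temperature. Compound exposure lasted 16 h at 37C.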

[8] = qHTS assay to identify small molecule antagonists of the farnesoid-X-receptor (FXR) signaling pathway - cell viability counter screen (AID 743221; active = well fitted cell-killing curve with a large enough effect in the repeat runs, not every such curve was filed as active; inconclusive = weak or mixed curves, or effect the other way; inactive = no such curve, though single readings can be large or run the other way; also: nearly all actives have a fitted effect of over 50% in size); settings: FXR-bla HEK293T viability, CellTiter-Glo luminescence, 16 h; activity change, negative = cytotoxicity: at 62.6 µM (top of the series) unless noted
In short: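 Cytotoxicity is taken from ATP luminescence (CellTiter-Glo, 30 min, room temperature) in FXR-bla HEK 293T cells previously incubated 16 h at 37 C with compound and chenodeoxycholic acid at 50 uM final.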

[9] = molecular target: Vitamin D3 receptor (Homo sapiens) (UniProt P11473); assay: qHTS assay to identify small molecule agonists of the vitamin D receptor (VDR) signaling pathway (AID 743222; calls by dose curve; as to activation: % is scaled to controls: 0 for no effect and ±100 for the full control effect); settings: HEK293T VDR-UAS-bla, beta-lactamase FRET ratio, 16 h; activation: at 63.5 µM (top of the series) unless noted
In short: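 Quantitative HTS agonist-mode screen: compounds in DMSO were pin-transferred onto VDR-bla cells and incubated 16 h at 37C, 5% CO2. Reporter activity was detected with LiveBLAzer B/G FRET substrate after 2 h at room temperature.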
Potency is read from the fitted curve at half-maximal effect.

COc1ccc(C(CN(C)C)C2(O)CCCCC2)cc1 (stereo unspecified)
activity change, negative = inhibition [1]: inconclusive: -1.47%
Potency [2]: inconclusive: 61.7 µM [rising, single point]

c1ccc(Nc2ccc3ccccc3c2)cc1
Potency [3]: inconclusive: 61.7 µM [cytotoxic]
Potency [4]: inconclusive: 30.9 µM [cytotoxic, partial curve, poor fit]
Potency [2]: inconclusive: 54.6 µM [cytotoxic, single point] and inconclusive: 61.7 µM [cytotoxic]
Potency [5]: inconclusive: 54.6 µM [cytotoxic, single point] and inconclusive: 49 µM [cytotoxic, partial curve]

CC(=O)Nc1ccc2c(c1)Cc1ccccc1-2
Potency [4]: inactive
Potency [2]: inconclusive: 62.6 µM [rising, partial curve, poor fit]

O=[N+]([O-])c1ccc(Cl)c([N+](=O)[O-])c1
Potency [6]: inconclusive: 62.6 µM [cytotoxic, single point] and active: 54.9 µM
Potency [7]: inconclusive: 62.6 µM [single point] and inconclusive: 61.7 µM
Potency [8]: inconclusive: 55.8 µM [falling, single point] and inconclusive: 54.9 µM [falling, single point]
Potency [9]: inconclusive: 24.5 µM [falling, partial curve, poor fit]
activation [9]: inconclusive: 19.9% [at 81.1 µM]
Potency [1]: active: 22.2 µM and active: 21.9 µM
Potency [4]: active: 19.8 µM and active: 19.5 µM
Potency [2]: active: 49.7 µM and active: 54.9 µM

CCCCCCCC[N+](C)(CCCCCCCC)CCCCCCCC
Potency [6]: active: 7.75 µM and active: 2.19 µM and active: 7.76 µM
Potency [7]: inconclusive: 24.5 µM [cytotoxic, full curve] and inconclusive: 34.7 µM and inconclusive: 54.9 µM [single point]
Potency [4]: active: 5.48 µM and active: 6.93 µM and active: 6.16 µM
Potency [2]: active: 17.3 µM and inconclusive: 6.18 µM [cytotoxic, full curve] and active: 24.5 µM

Clc1ccc(COC(Cn2ccnc2)c2ccc(Cl)cc2Cl)cc1 (stereo unspecified)
Potency [6]: active: 32.3 µM and active: 19.4 µM and active: 26.6 µM
Potency [8]: active: 40.7 µM and active: 17.3 µM and active: 26.6 µM
Potency [3]: active: 20.4 µM and active: 13.7 µM and active: 26.6 µM
Potency [4]: active: 45.7 µM and active: 48.8 µM and inconclusive: 26.8 µM [cytotoxic, single point]
Potency [2]: inconclusive: 51.3 µM [cytotoxic] and inconclusive: 61.4 µM [cytotoxic, single point] and inconclusive: 26.8 µM [cytotoxic, single point]

CN(C)C(=S)SSC(=S)N(C)C
Potency [9]: inconclusive: 0.237 µM [rising, partial curve]
Potency [4]: active: 27.2 µM and active: 24.5 µM and inconclusive: 26.8 µM [cytotoxic]
Potency [2]: inconclusive: 483 nM [cytotoxic, single point] and inconclusive: 174 nM [cytotoxic, full curve, poor fit] and active: 674 nM
activation [5]: inconclusive: -5.53% and inconclusive: -7.74% and inconclusive: -3.75%

N#CSCSC#N
Potency [7]: inconclusive: 63.1 µM
Potency [9]: inconclusive: 25.1 µM [cytotoxic]
Potency [3]: active: 15.8 µM and active: 17.2 µM
Potency [4]: active: 50.1 µM and active: 34.3 µM
Potency [2]: active: 25.1 µM and inconclusive: 54.4 µM [cytotoxic, single point]
Potency [5]: inconclusive: 63.1 µM and inconclusive: 61.1 µM

CC(=O)C(Cl)Cl
Potency [5]: inactive

Oc1ccc(Cl)cc1Cc1ccccc1
Potency [6]: inconclusive: 61.6 µM [cytotoxic, single point] and active: 60.5 µM
Potency [3]: inconclusive: 54.9 µM [cytotoxic] and inconclusive: 9.89 µM [cytotoxic, full curve]
Potency [4]: inconclusive: 61.6 µM [cytotoxic, single point] and inconclusive: 15.7 µM [cytotoxic, full curve] and inconclusive: 3.38 µM [cytotoxic, full curve, poor fit]
Potency [2]: active: 54.9 µM and active: 49.6 µM and inconclusive: 26.8 µM [cytotoxic]
Potency [5]: inconclusive: 49 µM [cytotoxic, partial curve] and inconclusive: 44.2 µM [cytotoxic]

Reference: PubChem BioAssay (Tox21)
